According to the supplement of paper PMC6411743:
± gives the standard deviation of the averaged measurements. Only a part is listed here, and it is no random draw. Most values lie at the level of the controls, where differences are scatter.

Sequences of proteins named here, by UniProt entry; tags and fusion partners are left off. A change or cut given only in a name is not applied to a line headed by its entry.
UniProt Q8IYB8: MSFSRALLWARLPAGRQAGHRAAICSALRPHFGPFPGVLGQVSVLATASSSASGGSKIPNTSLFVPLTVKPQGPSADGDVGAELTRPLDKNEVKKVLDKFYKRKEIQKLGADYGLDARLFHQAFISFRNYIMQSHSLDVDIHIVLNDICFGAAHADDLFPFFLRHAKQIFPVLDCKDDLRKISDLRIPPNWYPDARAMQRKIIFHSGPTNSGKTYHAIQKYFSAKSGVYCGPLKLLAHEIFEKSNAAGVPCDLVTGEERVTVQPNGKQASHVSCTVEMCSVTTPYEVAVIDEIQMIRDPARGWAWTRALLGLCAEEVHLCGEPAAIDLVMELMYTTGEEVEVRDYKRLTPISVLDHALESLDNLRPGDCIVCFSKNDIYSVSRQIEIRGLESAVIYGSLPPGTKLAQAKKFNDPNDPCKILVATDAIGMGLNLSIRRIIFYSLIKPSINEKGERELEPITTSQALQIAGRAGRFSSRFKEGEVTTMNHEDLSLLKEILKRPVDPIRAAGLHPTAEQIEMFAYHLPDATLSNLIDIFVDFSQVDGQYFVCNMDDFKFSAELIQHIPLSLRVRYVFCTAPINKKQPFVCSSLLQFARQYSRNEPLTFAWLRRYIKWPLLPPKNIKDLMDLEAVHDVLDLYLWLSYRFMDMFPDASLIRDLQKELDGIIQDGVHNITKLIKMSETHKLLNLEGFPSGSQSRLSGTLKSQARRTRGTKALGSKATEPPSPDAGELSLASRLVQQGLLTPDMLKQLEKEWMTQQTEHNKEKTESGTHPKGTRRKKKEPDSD
UniProt Q8NBM4: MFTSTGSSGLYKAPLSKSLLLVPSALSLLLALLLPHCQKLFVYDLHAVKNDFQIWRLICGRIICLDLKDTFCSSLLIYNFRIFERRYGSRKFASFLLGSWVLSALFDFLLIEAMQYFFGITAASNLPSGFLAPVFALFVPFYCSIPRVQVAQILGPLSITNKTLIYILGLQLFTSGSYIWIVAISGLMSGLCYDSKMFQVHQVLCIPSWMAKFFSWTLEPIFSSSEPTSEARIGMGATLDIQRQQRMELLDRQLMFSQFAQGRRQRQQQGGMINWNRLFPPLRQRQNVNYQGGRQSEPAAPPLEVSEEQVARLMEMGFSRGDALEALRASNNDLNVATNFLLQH
UniProt Q8N490: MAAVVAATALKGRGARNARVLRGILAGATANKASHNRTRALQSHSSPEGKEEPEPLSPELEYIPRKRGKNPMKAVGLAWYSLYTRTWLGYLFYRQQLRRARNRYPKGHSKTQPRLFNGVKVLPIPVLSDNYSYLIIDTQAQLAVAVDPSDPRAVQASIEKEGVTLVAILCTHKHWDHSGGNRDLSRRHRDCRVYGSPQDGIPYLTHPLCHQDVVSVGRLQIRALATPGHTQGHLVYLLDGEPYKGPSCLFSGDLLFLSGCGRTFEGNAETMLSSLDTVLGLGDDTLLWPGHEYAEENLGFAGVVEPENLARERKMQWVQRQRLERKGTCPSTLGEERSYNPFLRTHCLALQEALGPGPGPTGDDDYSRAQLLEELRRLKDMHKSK
UniProt Q86SK9: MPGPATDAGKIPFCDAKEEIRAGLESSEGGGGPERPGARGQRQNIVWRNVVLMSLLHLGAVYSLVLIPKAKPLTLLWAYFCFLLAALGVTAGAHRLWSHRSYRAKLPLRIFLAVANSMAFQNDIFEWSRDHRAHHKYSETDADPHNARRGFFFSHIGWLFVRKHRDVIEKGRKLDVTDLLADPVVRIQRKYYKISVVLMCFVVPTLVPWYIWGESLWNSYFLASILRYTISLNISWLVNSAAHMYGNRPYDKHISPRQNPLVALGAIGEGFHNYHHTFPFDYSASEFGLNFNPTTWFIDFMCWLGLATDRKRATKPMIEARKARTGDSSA
UniProt Q86WQ0: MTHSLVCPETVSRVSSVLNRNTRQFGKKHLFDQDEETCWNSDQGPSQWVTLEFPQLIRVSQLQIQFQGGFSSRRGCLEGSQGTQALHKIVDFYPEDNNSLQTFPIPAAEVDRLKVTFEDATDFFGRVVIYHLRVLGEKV
UniProt Q8IWF6: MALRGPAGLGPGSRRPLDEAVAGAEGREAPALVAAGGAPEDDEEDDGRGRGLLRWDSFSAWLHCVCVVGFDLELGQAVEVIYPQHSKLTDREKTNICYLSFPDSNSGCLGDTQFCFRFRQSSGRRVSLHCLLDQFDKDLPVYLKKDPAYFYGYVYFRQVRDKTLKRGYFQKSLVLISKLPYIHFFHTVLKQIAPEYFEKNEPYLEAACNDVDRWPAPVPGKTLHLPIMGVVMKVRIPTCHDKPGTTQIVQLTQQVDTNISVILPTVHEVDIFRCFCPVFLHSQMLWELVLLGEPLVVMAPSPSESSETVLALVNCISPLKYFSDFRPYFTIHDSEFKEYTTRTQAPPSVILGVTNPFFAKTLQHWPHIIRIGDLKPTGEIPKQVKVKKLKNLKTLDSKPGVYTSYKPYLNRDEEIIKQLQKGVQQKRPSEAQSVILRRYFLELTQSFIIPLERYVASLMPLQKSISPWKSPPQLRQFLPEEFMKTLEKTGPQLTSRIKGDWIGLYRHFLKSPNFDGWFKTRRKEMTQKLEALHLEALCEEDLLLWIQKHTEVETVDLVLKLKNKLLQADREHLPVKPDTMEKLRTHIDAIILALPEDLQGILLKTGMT
UniProt Q8NBA8: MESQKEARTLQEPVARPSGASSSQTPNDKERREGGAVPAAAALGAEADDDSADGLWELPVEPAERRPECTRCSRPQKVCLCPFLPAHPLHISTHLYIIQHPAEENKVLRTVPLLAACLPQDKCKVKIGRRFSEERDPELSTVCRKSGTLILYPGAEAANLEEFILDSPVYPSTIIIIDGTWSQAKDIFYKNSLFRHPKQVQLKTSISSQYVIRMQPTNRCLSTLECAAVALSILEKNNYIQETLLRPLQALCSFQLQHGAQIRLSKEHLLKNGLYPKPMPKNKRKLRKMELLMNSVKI
UniProt Q8N511: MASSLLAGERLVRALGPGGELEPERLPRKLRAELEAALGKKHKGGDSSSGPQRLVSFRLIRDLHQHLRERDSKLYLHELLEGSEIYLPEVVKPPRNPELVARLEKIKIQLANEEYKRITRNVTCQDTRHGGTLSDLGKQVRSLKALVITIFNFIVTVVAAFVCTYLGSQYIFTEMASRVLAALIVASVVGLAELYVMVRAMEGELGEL
UniProt Q8N0Z3: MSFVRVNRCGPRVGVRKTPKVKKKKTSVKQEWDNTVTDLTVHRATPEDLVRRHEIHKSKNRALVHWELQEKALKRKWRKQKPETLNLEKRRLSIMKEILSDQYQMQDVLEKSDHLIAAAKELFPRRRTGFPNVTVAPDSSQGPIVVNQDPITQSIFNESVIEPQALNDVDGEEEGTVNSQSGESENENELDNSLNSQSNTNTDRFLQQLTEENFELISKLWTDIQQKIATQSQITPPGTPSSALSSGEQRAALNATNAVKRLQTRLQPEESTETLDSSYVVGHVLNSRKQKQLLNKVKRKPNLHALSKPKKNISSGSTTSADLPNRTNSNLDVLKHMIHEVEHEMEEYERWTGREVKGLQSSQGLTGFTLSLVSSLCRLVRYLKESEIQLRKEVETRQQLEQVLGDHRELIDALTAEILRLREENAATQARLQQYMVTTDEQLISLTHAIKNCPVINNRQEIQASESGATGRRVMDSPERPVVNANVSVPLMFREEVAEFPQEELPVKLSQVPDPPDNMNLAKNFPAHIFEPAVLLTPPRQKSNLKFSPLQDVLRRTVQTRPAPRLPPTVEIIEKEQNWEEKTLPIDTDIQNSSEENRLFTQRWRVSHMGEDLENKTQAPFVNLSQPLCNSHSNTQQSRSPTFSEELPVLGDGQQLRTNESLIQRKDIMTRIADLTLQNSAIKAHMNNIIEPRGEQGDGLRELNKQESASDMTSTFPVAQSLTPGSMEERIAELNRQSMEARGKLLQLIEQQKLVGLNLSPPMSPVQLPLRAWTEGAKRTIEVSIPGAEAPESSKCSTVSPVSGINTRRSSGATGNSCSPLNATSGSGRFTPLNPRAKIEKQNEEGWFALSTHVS
UniProt Q8IYL3: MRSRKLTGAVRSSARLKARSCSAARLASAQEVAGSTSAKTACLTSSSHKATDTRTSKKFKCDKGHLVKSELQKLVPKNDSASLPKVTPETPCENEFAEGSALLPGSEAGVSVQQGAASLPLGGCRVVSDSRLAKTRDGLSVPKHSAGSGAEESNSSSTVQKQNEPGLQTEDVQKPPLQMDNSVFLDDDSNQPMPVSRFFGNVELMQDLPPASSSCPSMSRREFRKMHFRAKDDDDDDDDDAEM
UniProt Q86TN4: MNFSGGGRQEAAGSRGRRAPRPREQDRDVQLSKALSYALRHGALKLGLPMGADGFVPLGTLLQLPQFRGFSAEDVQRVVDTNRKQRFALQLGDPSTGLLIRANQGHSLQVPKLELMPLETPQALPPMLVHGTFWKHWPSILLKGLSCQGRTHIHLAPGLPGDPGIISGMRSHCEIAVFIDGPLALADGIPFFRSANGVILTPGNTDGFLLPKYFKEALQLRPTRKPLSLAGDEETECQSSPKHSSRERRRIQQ
UniProt Q8IX18: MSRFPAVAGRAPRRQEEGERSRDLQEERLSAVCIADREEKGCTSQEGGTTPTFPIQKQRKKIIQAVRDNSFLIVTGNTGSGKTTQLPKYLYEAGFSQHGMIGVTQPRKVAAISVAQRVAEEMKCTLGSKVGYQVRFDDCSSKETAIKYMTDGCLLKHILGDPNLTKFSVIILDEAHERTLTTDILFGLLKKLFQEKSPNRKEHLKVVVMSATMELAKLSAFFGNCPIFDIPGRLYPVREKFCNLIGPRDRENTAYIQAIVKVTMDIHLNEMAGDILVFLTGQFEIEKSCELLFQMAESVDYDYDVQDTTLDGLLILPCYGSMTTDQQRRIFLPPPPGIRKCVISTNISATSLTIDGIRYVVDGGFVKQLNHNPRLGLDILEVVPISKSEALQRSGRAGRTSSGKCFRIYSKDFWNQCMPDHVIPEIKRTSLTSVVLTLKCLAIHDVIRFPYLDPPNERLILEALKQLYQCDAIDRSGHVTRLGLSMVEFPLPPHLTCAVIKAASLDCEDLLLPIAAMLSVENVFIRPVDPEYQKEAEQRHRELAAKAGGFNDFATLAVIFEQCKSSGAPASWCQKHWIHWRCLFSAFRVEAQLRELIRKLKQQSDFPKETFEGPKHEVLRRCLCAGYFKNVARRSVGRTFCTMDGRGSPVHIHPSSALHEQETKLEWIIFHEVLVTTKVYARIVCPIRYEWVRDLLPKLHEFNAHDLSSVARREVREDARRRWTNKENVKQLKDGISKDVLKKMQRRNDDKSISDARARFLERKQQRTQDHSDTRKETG
UniProt Q86VP1, whole entry: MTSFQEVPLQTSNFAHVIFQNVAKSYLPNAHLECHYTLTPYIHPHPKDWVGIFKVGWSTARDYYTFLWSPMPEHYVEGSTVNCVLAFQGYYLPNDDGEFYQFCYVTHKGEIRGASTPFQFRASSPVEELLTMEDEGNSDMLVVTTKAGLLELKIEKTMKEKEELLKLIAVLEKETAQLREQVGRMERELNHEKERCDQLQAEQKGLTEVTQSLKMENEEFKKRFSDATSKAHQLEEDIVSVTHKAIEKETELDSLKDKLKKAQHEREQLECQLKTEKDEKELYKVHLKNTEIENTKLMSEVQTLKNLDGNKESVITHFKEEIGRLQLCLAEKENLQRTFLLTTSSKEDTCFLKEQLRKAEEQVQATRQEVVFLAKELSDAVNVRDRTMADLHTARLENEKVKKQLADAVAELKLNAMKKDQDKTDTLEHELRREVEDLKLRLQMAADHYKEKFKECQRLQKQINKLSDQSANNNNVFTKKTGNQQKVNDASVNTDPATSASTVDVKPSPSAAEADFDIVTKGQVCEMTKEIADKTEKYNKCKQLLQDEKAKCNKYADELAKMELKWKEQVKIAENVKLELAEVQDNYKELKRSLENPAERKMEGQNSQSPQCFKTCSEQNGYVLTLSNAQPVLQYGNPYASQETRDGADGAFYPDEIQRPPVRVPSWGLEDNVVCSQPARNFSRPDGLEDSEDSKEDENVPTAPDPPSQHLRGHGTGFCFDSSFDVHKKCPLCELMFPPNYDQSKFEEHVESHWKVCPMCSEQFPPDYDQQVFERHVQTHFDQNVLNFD
UniProt Q8N2Z9: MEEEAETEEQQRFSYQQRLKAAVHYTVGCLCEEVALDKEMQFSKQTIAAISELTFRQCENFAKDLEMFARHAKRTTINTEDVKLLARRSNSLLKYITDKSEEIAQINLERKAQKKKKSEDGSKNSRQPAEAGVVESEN
UniProt Q86YM7: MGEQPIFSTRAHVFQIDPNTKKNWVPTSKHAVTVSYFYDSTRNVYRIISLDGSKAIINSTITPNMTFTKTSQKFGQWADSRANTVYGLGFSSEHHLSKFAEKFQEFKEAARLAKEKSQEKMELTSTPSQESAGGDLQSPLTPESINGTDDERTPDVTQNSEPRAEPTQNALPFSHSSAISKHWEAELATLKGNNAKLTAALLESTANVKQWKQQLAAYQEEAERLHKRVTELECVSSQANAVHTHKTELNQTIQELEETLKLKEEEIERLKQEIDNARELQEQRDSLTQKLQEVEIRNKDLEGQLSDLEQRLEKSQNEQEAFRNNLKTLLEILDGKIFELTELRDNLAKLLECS

Compound: Nc1ncnc2c1ncn2[C@@H]1O[C@H](COP(=O)(O)OP(=O)(O)NP(=O)(O)O)[C@@H](O)[C@H]1O [adenylyl imidodiphosphate]
Assay: NP40-soluble protein abundance relative to vehicle (solubility fold change) (ratio); higher = more soluble protein in presence of AMP-PNP
How it was run: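 Jurkat crude lysate prepared with a Dounce homogeniser was treated at eight concentrations spanning 0.1 to 10 mM, 10 min at room temperature then 3 min at 37 °C. Solubilisation with 0.8% NP40 and benzonase and ultracentrifugation preceded TMT labelling of the supernatant for LC-MS/MS. Fold change against the detergent-processed vehicle was determined per replicate from vsn-normalised intensities, across three independent experiments.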

Target	NP40-soluble protein abundance (concentration: 0.1mM)	NP40-soluble protein abundance (concentration: 0.5mM)
SUPV3L1 (UniProt Q8IYB8)	1.02 ± 0.017	0.986 ± 0.072
GPD1L (UniProt Q8N335)	0.969 ± 0.015	0.9813 ± 0.0024
USP38 (UniProt Q8NB14)	1.03 ± 0.031	1.02 ± 0.038
UniProt Q8N6R0 and related entries	1.01 ± 0.05	0.97 ± 0.077
RNF168 (UniProt Q8IYW5)	1 ± 0.017	0.975 ± 0.02
UniProt Q8N5Y8 and related entries	1.03 ± 0.028	1.02 ± 0.03
UniProt Q8IUQ4 and related entries	1.01 ± 0.024	1.01 ± 0.02
UniProt Q8NB37	1 ± 0.019	0.997 ± 0.013
UniProt Q8IW45	1 ± 0.015	0.984 ± 0.04
UniProt Q8NBM4 and related entries	0.973 ± 0.022	0.963 ± 0.019
RDH13 (UniProt Q8NBN7)	0.979 ± 0.011	1 ± 0.029
PIAS4 (UniProt Q8N2W9)	1 ± 0.039	1.02 ± 0.053
UniProt Q8N490 and related entries	0.975 ± 0.013	0.987 ± 0.022
UniProt Q8N9N5 and related entries	1 ± 0.051	0.976 ± 0.026
UniProt Q86SK9 and related entries	0.9858 ± 0.006	0.976 ± 0.064
UniProt Q8IXB1 and related entries	0.989 ± 0.024	1.01 ± 0.042
UniProt Q86WQ0 and related entries	1.02 ± 0.068	1.06 ± 0.038
UniProt Q8IYB5-2|Q8IYB5-3	0.998 ± 0.02	0.996 ± 0.038
UniProt Q8N1K5 and related entries	0.988 ± 0.015	0.962 ± 0.059
GALNT7 (UniProt Q86SF2)	1 ± 0.044	0.978 ± 0.052

Target	NP40-soluble protein abundance (concentration: 0.1mM)	NP40-soluble protein abundance (concentration: 0.5mM)
UniProt Q7Z7K6 and related entries	1.04 ± 0.026	1.05 ± 0.013
UniProt Q8N6G5 and related entries	0.952 ± 0.084	0.955 ± 0.022
ARHGAP30 (UniProt Q7Z6I6)	0.99 ± 0.012	0.997 ± 0.031
UniProt Q86X53 and related entries	0.984 ± 0.015	0.9885 ± 0.0084
PRPF39 (UniProt Q86UA1)	0.988 ± 0.022	0.983 ± 0.046
UniProt Q8IY63 and related entries	1 ± 0.043	1.04 ± 0.042
UniProt Q86VR2	1.01 ± 0.014	0.9938 ± 0.0078
UniProt Q8IWF6	1.04 ± 0.027	1.02 ± 0.032
UniProt Q86U86 and related entries	1.015 ± 0.0024	1.02 ± 0.012
UniProt Q8NBK3 and related entries	0.983 ± 0.021	0.997 ± 0.013
ITPRIP (UniProt Q8IWB1)	0.991 ± 0.025	0.994 ± 0.028
DTWD2 (UniProt Q8NBA8)	1.03 ± 0.034	1.03 ± 0.034
UniProt Q86TP1 and related entries	0.994 ± 0.027	1.005 ± 0.0066
UniProt Q86YC3	0.964 ± 0.023	0.983 ± 0.012
LRRC8A (UniProt Q8IWT6)	0.992 ± 0.011	0.989 ± 0.029
UniProt Q8N511 and related entries	0.991 ± 0.036	1.029 ± 0.0014
UniProt Q8IXI2-2|Q8IXI2-3	1.02 ± 0.043	0.996 ± 0.037
THNSL1 (UniProt Q8IYQ7)	1 ± 0.044	0.987 ± 0.05
UniProt Q8N0Z3	0.9721 ± 0.0014	0.98227 ± 0.00073
RBM12B (UniProt Q8IXT5)	1.005 ± 0.0017	0.994 ± 0.033

Target	NP40-soluble protein abundance (concentration: 0.1mM)	NP40-soluble protein abundance (concentration: 0.5mM)
PTGR2 (UniProt Q8N8N7)	0.986 ± 0.018	0.988 ± 0.015
C1orf174 (UniProt Q8IYL3)	0.99 ± 0.025	0.976 ± 0.012
LYSMD2 (UniProt Q8IV50)	1.04 ± 0.063	0.957 ± 0.053
HPS6 (UniProt Q86YV9)	1 ± 0.02	1 ± 0.017
PCGF5 (UniProt Q86SE9)	0.958 ± 0.023	0.994 ± 0.056
UniProt Q8N9R8 and related entries	1.03 ± 0.015	1 ± 0.067
CLYBL (UniProt Q8N0X4)	0.966 ± 0.015	0.977 ± 0.044
UniProt Q86TB9 and related entries	1 ± 0.016	1.03 ± 0.043
UniProt Q8N0V3	1.02 ± 0.021	1.02 ± 0.022
UniProt Q86TN4 and related entries	1.03 ± 0.065	1.04 ± 0.043
UniProt Q8IX18 and related entries	1.02 ± 0.037	0.951 ± 0.07
DIS3L2 (UniProt Q8IYB7)	0.982 ± 0.017	0.96 ± 0.016
UniProt Q8IXJ6 and related entries	1.01 ± 0.046	1.01 ± 0.024
UBR7 (UniProt Q8N806)	0.9777 ± 0.006	0.999 ± 0.013
UniProt Q86W42 and related entries	1.15 ± 0.078	1.18 ± 0.029
UniProt Q86VP1-2|Q86VP1-4|B8ZZD4	0.957 ± 0.053	0.948 ± 0.029
UniProt Q86T03-2	0.986 ± 0.054	1.02 ± 0.05
UniProt Q8N2Z9	0.949 ± 0.019	0.958 ± 0.037
UniProt Q86VN1 and related entries	1.02 ± 0.035	1.01 ± 0.057
HOMER1 (UniProt Q86YM7)	0.99 ± 0.021	0.986 ± 0.011
